The target in assay [1] is hOGG1 K249Q (human) (UniProt O15527). Description: AFM imaging, volume analysis; hOGG1 wildtype or K249Q (150 nM) with Myc (30 nM) and 505 bp oxoG DNA (3 nM), AFM buffer, oxidising (pre-oxidised hOGG1) and reducing (5 mM DTT) conditions; volumes of DNA-bound complexes; both purified.
Assay [2] deals with hOGG1 C28A (human) (UniProt O15527). In words: fluorescence polarisation; oxidising conditions (5 uM H2O2); 5 nM Ni-NTA AF488 labelled his6-hOGG1, unlabelled protein titrated (Myc 1.22 nM-2 uM, LSD1 1.38 nM-60 uM, hOGG1 0.24 nM-8 uM); 20 mM Tris-HCl pH 7.6, 200 mM NaCl; 25 C; single Hill fit; both purified. In general terms: Polarisation of emitted light reports the rotation of a fluorescent probe.

Sequences of proteins named here, by UniProt entry; tags and fusion partners are left off. A change or cut given only in a name is not applied to a line headed by its entry.
UniProt O15527: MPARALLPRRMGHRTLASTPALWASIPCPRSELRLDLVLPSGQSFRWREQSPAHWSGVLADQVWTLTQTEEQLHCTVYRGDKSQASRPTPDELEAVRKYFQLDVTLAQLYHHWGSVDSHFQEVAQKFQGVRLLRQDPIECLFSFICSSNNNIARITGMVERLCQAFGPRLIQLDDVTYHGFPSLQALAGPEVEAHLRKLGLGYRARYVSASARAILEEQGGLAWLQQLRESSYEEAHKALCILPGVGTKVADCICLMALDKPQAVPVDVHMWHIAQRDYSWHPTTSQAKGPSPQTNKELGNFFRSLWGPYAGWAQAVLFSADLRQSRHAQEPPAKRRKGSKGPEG
UniProt P01106: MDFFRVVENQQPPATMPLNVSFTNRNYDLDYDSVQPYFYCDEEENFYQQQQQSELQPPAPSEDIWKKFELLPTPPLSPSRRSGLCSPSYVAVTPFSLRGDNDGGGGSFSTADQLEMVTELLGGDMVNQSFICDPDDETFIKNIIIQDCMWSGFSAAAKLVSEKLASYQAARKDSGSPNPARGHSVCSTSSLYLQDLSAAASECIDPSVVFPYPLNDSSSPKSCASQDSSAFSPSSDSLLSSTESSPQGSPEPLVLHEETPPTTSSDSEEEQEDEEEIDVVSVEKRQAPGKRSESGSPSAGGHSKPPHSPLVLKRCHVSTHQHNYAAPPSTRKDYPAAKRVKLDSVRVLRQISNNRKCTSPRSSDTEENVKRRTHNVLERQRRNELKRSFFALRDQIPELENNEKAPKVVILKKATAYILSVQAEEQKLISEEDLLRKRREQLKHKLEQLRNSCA

The target is the same in assay [3]. Description: non-reducing SDS-PAGE with anti-His Western blot; 8 uM purified hOGG1 wildtype or cysteine mutant, oxidised (pre-oxidised with 5 uM H2O2); non-reducing 15% SDS-PAGE, mouse anti-His antibody; both purified. (In general: In western blotting, separated proteins are transferred to a membrane and probed.)
The target is the same in assay [4]. Description: AFM imaging, volume analysis; pre-oxidised hOGG1 (wildtype or mutant, 150 nM) alone with 505 bp oxoG DNA (3 nM), AFM buffer (25 mM HEPES pH 7.5, 25 mM NaCl, 10 mM MgCl2) without DTT; volumes of DNA-bound complexes; both purified.
Assay [5] deals with hOGG1 K249Q (human) (UniProt O15527). Description: condition: only reducing conditions (5 mM DTT); 150 nM hOGG1; AFM imaging, volume analysis; native hOGG1 (wildtype or K249Q, 150 nM) alone with 505 bp oxoG DNA (3 nM), AFM buffer with 5 mM DTT; volumes of DNA-bound complexes; both purified.

These are yes or no findings as the source states them, for the method shown. Some results given as binding are weak or reduced against the parent protein; the word gives no strength.

For the substance “GST tagged full length c-Myc (from UniProt P01106 1-454)”, the binding result in assay [1] and in assay [2] was “binds” throughout.
Consider “hOGG1 C28A (from UniProt O15527 1-345) (enzyme)”, for which the binding result in assay [3] is given as “no binding (tested: 8 μM)”; in assay [4] it was “no binding (tested: 150 nM)”.
With “hOGG1 K249Q (from UniProt O15527 1-345) (enzyme)”, in assay [5], the binding entry is listed as “no binding”.

Values taken from paper PMC9561264.
